The text below walks through data of paper PMC10746232.

Results are given in words; binding and its absence hold for the method and conditions named. Binding seen in cells or lysates may run through a third protein. Binding can be weak; no strength is given. Where a sequence is shown, tags or fusion partners need not be part of it.

In assay [1] the target is TgCOPI-δ^myc (Toxoplasma gondii (endogenous in RH tachyzoites)). The assay can be described thus: co-IP; myc-tagged bait (TgCOPI-δ^myc, TgSec31^myc or Tg289120^myc) isolated on α-Myc magnetic beads from parasites co-expressing endogenous TgCog3^AID-HA or TgCog7^AID-HA; western blot with α-HA and α-myc; extraction in PBS with 263 mM NaCl, 1% Triton X-100. For orientation: In western blotting, separated proteins are transferred to a membrane and probed.

The target of assay [2] is TgSec31^myc (Toxoplasma gondii (endogenous in RH tachyzoites)). The description is as above.

B1: TgCog7^AID-HA (protein, UniProt S8FAE0 1-1223)
chain: MASPVPKPPEGALPGSPLPSSNSSSSASLQSSAVSAAFNALSAPTFSAGAWLDACIERSLEQQAFEAPPVASSSLASSPETETARLADRLESTLESVLAEVQRRIATTFEALDTKSQDLSSAAPTYVKQVEELSGKLVDARRTVDDALKALSCVDFEHQESLRRLAALDALRRHFHRCRRVLLVLHQWDFRVGEIELLLHSFQHQETPLIANPASSVDGTPFHPHQPSQGQGLSDDADASTFSSSSFSSSASSASSASSASSSSSSSAFEHAASTARLRSLAQAAMHAAALKNAVQELKAFGEFSARVRAAELLEKRVVVVTRSLMRSAFLSGDAESLRVAMNISVTLNHSAQLQQELSKCFGDQLRQAWLATWARTPAGRRRREAEVAAGACWALAPNERLHGERELYAEEQGDGFPREEADACGDDASVEKEQRTIGEPEALLLYFEEFTRLLEERSSLLRLFADELSQAEIRALRASSDDASSTSSCSSAAHSASSSSRSADPQGPFGCGRRGEEETSGVAGAASQAPHRPLRLHRTASRLHTRVWEETLLLCLKVGGEAPNAEVEAFLAAGGADLEEDDEERMARIEKLLQTYDMGFTLLSATPVVAESEPHIPQLWRKISSTCLFFPALLLRQFNAALWKSSRRFFLQDAPSVRPFDKRQAPSQVVMELEGRLDRTLQRLSSPALAALSPGAFHLCLAPCLLSAVDDAVAEFLSSLSPVLQTFAHTIQYKTQSIQDTQNRERERDLPARGNAGDFLPLDVLPTSLPFDLSLLNACMQQYLLFASAQQKLAQGAAVVFDEALTGHRRHSRFNVYLRELTNLHPDLLVYPSPSAVAHSASLLPSSCSSSFSAPPLPSVLPASFAAYTKLRHASRALVLLACSAPCSLFLHRFYPLCWGAISVSSSAQRAESLLREQRESINGQESKAILPSSVSTAAGEFFLQLLPHLEVAAAGAKGSEKRETEVESSDESLIAGLLSVVFTSFCRALLVADLPTRLTKEEPVQRGELRENMLLQLQADARYLASLSRSLGYDPEEESSFLFFETESGEGSEKARDAQADKQDQQTKDEERESSDLGETKKEEKDEAVRQERKRGPTWMIGLLLRGLDALLGTAEGETSAEPSAAKREEIKNNADENSSSLGCLGAFEAHLRRKFAREKNETKGESPSDSERVRAARAVAAAALESPSSDLCKSEKEKEDEEVTLVWAVLCQLGVFPSPL
Regarding B1, the binding result in assay [1] and in assay [2] was “binds” each time.
